## Results of single-concentration screens

Protein sequences, listed by entry. Tags and fused reporters are not part of them. Residues count along the entry.
UniProt P9WFT3, whole entry: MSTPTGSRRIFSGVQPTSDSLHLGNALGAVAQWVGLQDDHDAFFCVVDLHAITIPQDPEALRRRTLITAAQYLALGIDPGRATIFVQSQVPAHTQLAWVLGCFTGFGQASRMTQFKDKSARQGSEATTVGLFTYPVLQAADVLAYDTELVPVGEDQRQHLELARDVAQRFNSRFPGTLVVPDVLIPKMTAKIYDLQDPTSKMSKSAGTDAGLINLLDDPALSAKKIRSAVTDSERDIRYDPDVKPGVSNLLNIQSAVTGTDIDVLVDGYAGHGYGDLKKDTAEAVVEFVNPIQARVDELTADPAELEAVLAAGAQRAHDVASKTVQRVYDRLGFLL
UniProt Q4DA54, 1-478: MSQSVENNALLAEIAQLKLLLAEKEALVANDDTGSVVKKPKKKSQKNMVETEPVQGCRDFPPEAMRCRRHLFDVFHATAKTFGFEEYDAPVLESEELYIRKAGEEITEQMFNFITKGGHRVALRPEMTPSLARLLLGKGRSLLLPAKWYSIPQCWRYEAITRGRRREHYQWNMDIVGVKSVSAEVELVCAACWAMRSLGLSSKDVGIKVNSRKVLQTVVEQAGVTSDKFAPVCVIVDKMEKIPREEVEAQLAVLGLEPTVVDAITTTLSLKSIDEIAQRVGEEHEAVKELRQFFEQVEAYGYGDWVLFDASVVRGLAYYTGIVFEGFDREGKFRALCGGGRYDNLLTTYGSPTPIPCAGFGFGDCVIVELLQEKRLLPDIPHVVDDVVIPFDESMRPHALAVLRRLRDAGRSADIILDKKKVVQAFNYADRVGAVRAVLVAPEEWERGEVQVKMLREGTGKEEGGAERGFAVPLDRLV

Measurements from “University of Dundee, Small-Polar-MMV Screening Library” (2021), ChEMBL document CHEMBL3988442.

MtTrpRS: 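Enzyme assay of tryptophanyl-tRNA synthetase; the read-out is not stated. Target: Tryptophan-tRNA ligase, Mycobacterium tuberculosis (UniProt P9WFT3). Concentration: 10 µM. Direction is not recorded; retested compounds ran higher, which suggests that high means inhibition. About 65,000 compounds were tested under these conditions; 0.098% (about 64) showed 50% or more at least once.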
Leishmania in macrophages: 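Cell assay of Leishmania donovani living inside macrophages; the read-out is not stated. Tested at 30 µM. Direction is inferred from retests: higher values go with stronger inhibition. About 69,000 compounds were tested under these conditions; 1.5% (about 1,000) showed 50% or more at least once.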
TcHisRS: 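Histidine-tRNA ligase, Trypanosoma cruzi CL Brener (UniProt Q4DA54). Enzyme assay of histidyl-tRNA synthetase; the read-out is not stated. Concentration: 30 µM. Higher reads as stronger inhibition (inferred: compounds with an IC50 in retests scored well above the rest). Size under these conditions: about 69,000 compounds, about 31 of them at 50% or above in at least one test.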

Values are the deposited “Percent Effect”, in %. The controls that fix the scale are not given in the record; negative values are as filed. The compounds are a random part of those screened.

Result for CC(C)C(O)CNC(=O)Nc1ccc(F)c(Cl)c1 (centres unmarked) was MtTrpRS: -3.116%; Leishmania in macrophages: -22.94%; TcHisRS: 9.804%. For Nc1cc(CCCNC(=O)NC2CCCC2)nn1-c1ccccc1 the result was MtTrpRS: -1.414%; Leishmania in macrophages: -47.15%; TcHisRS: 6.748%. CCn1cc(C(=O)NCc2csc(Br)c2)cn1 gave MtTrpRS: 3.801%; Leishmania in macrophages: 13.74%; TcHisRS: 1.88%. O=S(=O)(c1ccc(-c2cnco2)cc1)N1CCCC(O)(CO)CC1 (centres unmarked) gave MtTrpRS: 0.5939%; Leishmania in macrophages: -19.98%; TcHisRS: 9.135%. Result for Cc1n[nH]c(C)c1CCC(=O)NCC1CCCN(C2CCCC2)C1 (centres unmarked) was MtTrpRS: 1.008%; Leishmania in macrophages: 14.57%; TcHisRS: 10.89%. Cn1nc(C(=O)NC2CCCC2)cc1NC(=O)C1CC1 gave MtTrpRS: -2.676%; Leishmania in macrophages: -6.386%; TcHisRS: 7.937%. For CN(Cc1cccc(OC(F)(F)F)c1)C(=O)c1cnsn1 the result was MtTrpRS: -3.712%; Leishmania in macrophages: 4.846%; TcHisRS: 4.327%.

Result for O=C(C1CCCN1S(=O)(=O)C1CCCC1)N1CCSCC1 (centres unmarked) was MtTrpRS: -1.867%; Leishmania in macrophages: 3.983%; TcHisRS: 15.29%. Cc1nnc2n1CCN(CCOc1ccccc1)C2 gave MtTrpRS: -1.267%; Leishmania in macrophages: 9.857%; TcHisRS: 0.3759%. With O=C(CC1CCC2(CC1)CCN(Cc1ccncc1)CC2)N1CCCC1.O=C(O)C(F)(F)F the screen gave Leishmania in macrophages: -14.5%. CN(C(=O)c1ccccn1)c1nc2c(s1)CCc1c-2cnn1C read MtTrpRS: 2.592%; Leishmania in macrophages: 20.02%; TcHisRS: 5.946%. CCc1noc(C(C)N2CCN(c3ccc(C#N)cn3)CC2)n1 (centres unmarked) gave MtTrpRS: -3.708%; Leishmania in macrophages: -0.2704%; TcHisRS: -2.174%. Result for Cc1noc(C(C)C)c1C(=O)NCC(c1ccsc1)N(C)C (centres unmarked) was MtTrpRS: -4.013%; Leishmania in macrophages: 16.92%; TcHisRS: 3.759%. Result for Cn1cc(C2CCCN2CCc2nc3ccccc3c(=O)[nH]2)cn1 (centres unmarked) was MtTrpRS: -3.504%; Leishmania in macrophages: 0.2569%; TcHisRS: 3.458%.

Result for O=C(O)C(F)(F)F.O=C(O)C(F)(F)F.[H][C@@]12OCCN(Cc3nccs3)[C@@]1([H])CC[C@H]2OCc1cccc(C)n1 was Leishmania in macrophages: 8.317%. With COc1ccc(F)cc1CSCC(=O)N(C)CCC#N the screen gave MtTrpRS: -0.3276%; Leishmania in macrophages: 48.67%; TcHisRS: -0.5525%. Result for O=C(NCC1CCCN(C(=O)NCCc2ccccc2)C1)c1ccco1 (centres unmarked) was MtTrpRS: 3.799%; Leishmania in macrophages: 7.353%; TcHisRS: 6.667%. Cc1ccc(CN2Cc3c(C(=O)N4CCCC4)nn(C)c3C2)s1 read MtTrpRS: -3.904%; TcHisRS: -6.14%. Result for CCN(CC(=O)NC(C)C)C(=O)c1ccc(-c2ccsc2)nc1C was MtTrpRS: -1.146%; Leishmania in macrophages: 37.07%; TcHisRS: 5.804%. With CCOCCC(=O)NCC(C)c1ccsc1 (centres unmarked) the screen gave MtTrpRS: -2.42%; Leishmania in macrophages: -42.99%; TcHisRS: -4.819%. With COc1ccc(CN2C[C@H](OCC3CCOCC3)[C@H]3COC[C@H]32)cc1 the screen gave MtTrpRS: 3.043%; TcHisRS: 5.785%.

For COc1ccc(CN2Cc3nnn(C)c3C(COCCN(C)C)C2)cc1.O=C(O)C(F)(F)F.O=C(O)C(F)(F)F (centres unmarked) the result was Leishmania in macrophages: -3.103%. CCc1nc(C)sc1CN1CC[C@@](O)(CCOC)[C@H](C)C1 read MtTrpRS: -1.152%; Leishmania in macrophages: -2.671%; TcHisRS: 3.96%. For COc1ccc2c(C)c(C(=O)NCC3CN(S(C)(=O)=O)CCO3)oc2c1 (centres unmarked) the result was MtTrpRS: 10.5%; Leishmania in macrophages: -2.812%; TcHisRS: -1.064%. For Cc1ccc(N(C)C2CCN(C(=O)c3ccsc3)CC2)nn1 the result was MtTrpRS: 1.679%; Leishmania in macrophages: 29.83%; TcHisRS: 1.527%. With CCc1cnc2c(c1Nc1ccc(C)c(F)c1)c(=O)n(C)c(=O)n2C the screen gave MtTrpRS: 3.815%; Leishmania in macrophages: -0.8312%; TcHisRS: 9.548%. With Cc1nnc(C2Cc3ccccc3CN2Cc2ncc(Cl)n2C)o1 (centres unmarked) the screen gave MtTrpRS: -5.676%; Leishmania in macrophages: 2.407%; TcHisRS: 7.182%. For [H][C@@]12CN(S(=O)(=O)c3ccccc3)C[C@]1([H])OCC(=O)N2Cc1ccccc1 the result was Leishmania in macrophages: 21.35%.

With O=C(NCC1CCOCC1)[C@H]1C[C@@H]2CCN(Cc3ccccc3)C[C@H]2O1 the screen gave MtTrpRS: -1.152%; TcHisRS: 6.667%. CC(=O)N[C@H]1CN(S(=O)(=O)N(C)Cc2ccccc2)C[C@@H]1C1CC1 read MtTrpRS: 0.2681%; Leishmania in macrophages: 32.69%; TcHisRS: -1.587%. COCCC(=O)N1CCc2c(CNc3ncccn3)cncc2C1 gave MtTrpRS: -0.3255%; TcHisRS: 8.824%. For CCCc1nc(C)c(C(=O)Nc2cccc(C)n2)s1 the result was MtTrpRS: -14.38%; Leishmania in macrophages: -8.21%; TcHisRS: -1.508%. O=S(=O)(C1CC1)N1CC[C@]2(C[C@H](OCC3CCOCC3)CO2)C1 read MtTrpRS: -0.3607%; Leishmania in macrophages: 21.33%; TcHisRS: -3.448%. CC(C)(C)n1cc(NC(=O)C2CN(Cc3ccccc3)CCO2)cn1 (centres unmarked) read MtTrpRS: 5.72%; Leishmania in macrophages: -3.785%; TcHisRS: 10%.